The data set can be described thus: Endogenous (background) concentration of SL in blank authentic minipig tissue. The conditions noted are these: for Background concentration in blank authentic matrix: measured at initiation of the stability test; for Endogenous (background) concentration in authentic matrix: x-intercept of standard-addition calibration curve (parallelism test).

Structures are written as SMILES.

The results in this text go back to PMC7731434, “Development and Validation of a Bioanalytical Method for 3′- and 6′-Sialyllactose in Minipig Liver and Kidney Using Liquid Chromatography-Tandem Mass Spectrometry and Its Application to Analysis of Tissue Distribution” (Molecules, 2020).

On to `CC(=O)N[C@H]1[C@H]([C@H](O)[C@H](O)CO)O[C@@](O[C@H]2[C@@H](O)[C@@H](CO)O[C@@H](O[C@H]3[C@H](O)[C@@H](O)[C@H](O)O[C@@H]3CO)[C@@H]2O)(C(=O)O)C[C@@H]1O` [3′-SL, 3′-sialyllactose], for which the “Background concentration in blank authentic matrix” value (shortened to “Background concentration”) runs as follows: (kidney) 62.1 ng/g; (liver) 339 ng/g. The “Endogenous (background) concentration in authentic matrix” value by setting is: (kidney) 66.3 ng/g; (liver) 324 ng/g.

Consider `CC(=O)NC1C(O)CC(OCC2OC(OC3C(CO)OC(O)C(O)C3O)C(O)C(O)C2O)(C(=O)O)OC1C(O)C(O)CO` (centres unmarked) [6′-SL, 6′-sialyllactose], for which the “Background concentration” value (kidney) was 55.6 ng/g and the “Background concentration” value (liver) was found to be 118 ng/g. For the same molecule, the “Endogenous (background) concentration in authentic matrix” value is, setting by setting: (kidney) 58.9 ng/g; (liver) 117 ng/g.
